Measured values as given in PubChem BioAssay AID540276 (National Center for Advancing Translational Sciences (NCATS), 2011).
In all, about 300,000 compounds went through this assay and about 5,400 (1.8%) were called active. Inconclusive means that the source gave no clear call. Such entries were picked first, then a sample of the others. Calls come from the whole dose curve; tested in HEK293 cells. Where the call is inconclusive, the potency comes from a doubtful curve fit.

Experiment: qHTS for inhibitors of binding or entry into cells for Marburg Virus
Conditions: Marburg virus pseudotyped entry inhibition, cell reporter; series mostly up to 37.8 µM
Potency is the fitted concentration of half-maximal effect.

| SMILES | Potency |
| --- | --- |
| CCOC(=O)c1ccc(NC(=O)N2CCOCC2)cc1 | inactive |
| CC1(C)CC(=O)C2=C(C1)NC(Nc1nc3ccccc3o1)=NC21CCCC1 | inconclusive: 1.16 µM [activator, single point] |
| Cc1ccc(-n2c(C)cc(/C=N/NC(N)=S)c2C)cc1 | inconclusive: 29.1 µM [inhibitor, single point] |
| COc1ccccc1CNc1ccc(-c2nc(-c3ccco3)no2)cc1[N+](=O)[O-] | inconclusive: 6.31 µM [inhibitor, single point] |
| C=CCN1C(=O)/C(=C/c2ccc(O)c(OC)c2)S/C1=N/c1nccs1 | inconclusive: 2.51 µM [inhibitor, partial curve, poor fit] |
| CN(C)C(CNC(=O)c1cccc(S(=O)(=O)N2CCN(c3ccc(F)cc3)CC2)c1)c1ccccc1 (stereo not drawn) | inconclusive: 14.1 µM [inhibitor, partial curve, poor fit] |
| CC(C)CCN1C(=O)c2cccc3c(N)ccc(c23)C1=O | inconclusive: 12.6 µM [activator, partial curve] |
| COc1ccc(C(CNC(=O)/C=C/c2c(Cl)nc3ccccn23)N(C)C)cc1 (stereo not drawn) | inconclusive: 17.8 µM [inhibitor, single point] |
| Cc1c(C(=O)OCC(=O)Nc2ccc3c(c2)OCO3)cccc1[N+](=O)[O-] | inconclusive: 35.5 µM [activator, partial curve, poor fit] |
| CC1CCCCC1NC(=O)CN1CCC(NC(=O)c2ccc([N+](=O)[O-])cc2)CC1 (stereo not drawn) | inconclusive: 17.8 µM [inhibitor, single point] |
| O=C(Nc1cc(=O)c2ccccc2o1)N1CCOCC1 | inconclusive: 4.61 µM [inhibitor, partial curve, poor fit] |
| Cc1ccc(-n2c(N)c(C(=O)Nc3c(C)n(C)n(-c4ccccc4)c3=O)c3nc4ccccc4nc32)cc1 | inconclusive: 35.5 µM [activator, partial curve, poor fit] |
| CCOC(=O)N1CCc2c(sc(NC(=O)CN3CCOCC3)c2C#N)C1 | inconclusive: 2.82 µM [activator, partial curve, poor fit] |
| N/C(=N\OC(=O)CC1CCCCC1)c1ccc([N+](=O)[O-])cc1 | inconclusive: 1.12 µM [activator, full curve, poor fit] |
| COc1ccc(C)cc1N(C(=O)c1snc(C(N)=O)c1N)C(C(=O)NC1CCCCC1)c1ccc(C)o1 (stereo not drawn) | active: 11.2 µM |
| C=CCn1c(SCC(=O)NC2CCCCC2)nnc1-c1sc(N)nc1C | inconclusive: 0.316 µM [activator, full curve, poor fit] |
| COc1ccc(NC(=O)CNS(=O)(=O)c2ccccc2)cc1Cl | inactive |
| CS(=O)(=O)N(CC(=O)Nc1ccccc1Br)Cc1ccccc1 | inconclusive: 0.355 µM [inhibitor, full curve, poor fit] |
| Cc1ccsc1CN(C(=O)c1oc2cc(Br)ccc2c1C)C1CCS(=O)(=O)C1 (stereo not drawn) | inconclusive: 35.5 µM [inhibitor, single point] |
| Cc1cc(C)c(S(=O)(=O)c2ccc(Cl)cc2)c(Cl)n1 | inactive |
| OC(CCCN1CCCCC1)(c1ccccc1)c1ccc(C(F)(F)F)cc1 (stereo not drawn) | inconclusive: 7.08 µM [inhibitor, partial curve, poor fit] |
| Cc1ccc(N2C(=O)CN(Cc3sccc3C)C2=S)cc1C | inactive |
| COc1ccc2cc(-c3ccon3)ccc2c1 | inconclusive: 2.82 µM [activator, partial curve, poor fit] |

In the list so far, these have bromine:

| SMILES | Potency |
| --- | --- |
| CS(=O)(=O)N(CC(=O)Nc1ccccc1Br)Cc1ccccc1 | inconclusive: 0.355 µM [inhibitor, full curve, poor fit] |
| Cc1ccsc1CN(C(=O)c1oc2cc(Br)ccc2c1C)C1CCS(=O)(=O)C1 (stereo not drawn) | inconclusive: 35.5 µM [inhibitor, single point] |

Next results follow.

| SMILES | Potency |
| --- | --- |
| CC(C)CCC(CCNCc1ccccn1)c1ccc(Cl)cc1 (stereo not drawn) | inconclusive: 11.2 µM [inhibitor, partial curve, poor fit] |
| CCOC(=O)N1CCC2(CC1)NCCc1c2[nH]c2ccccc12 | inconclusive: 11.2 µM [inhibitor, partial curve, poor fit] |
| COC(=O)Cn1c(=O)c2cccn2c2cccnc21 | inactive |
| Cc1cccc(CN(C)C)c1CC(O)(c1ccccc1)c1ccccc1 | inactive |
| CCC(C)(C(=O)NC1CCCCC1)N(C(=O)Cc1cccs1)c1ccccc1 (stereo not drawn) | inconclusive: 31.6 µM [inhibitor, single point] |
| COc1cc2c(cc1OC)CN(Cc1cc(=O)oc3cc(C)c(C)cc13)CC2 | inactive |
| COc1cccc(CC2(CO)CCCN(Cc3cc(F)ccc3-n3cccn3)C2)c1 (stereo not drawn) | inconclusive: 6.31 µM [inhibitor, full curve, poor fit] |
| COc1ccccc1NS(=O)(=O)c1cc(NC(=O)COc2ccccc2F)ccc1N1CCOCC1 | inconclusive: 20 µM [inhibitor, single point] |
| CC(C)(C)c1ccc(C(=O)c2c[nH]c(C(=O)NCc3cccnc3)c2)cc1 | inconclusive: 23.1 µM [inhibitor, partial curve, poor fit] |
| C=CCSc1nnc(-c2cc3c(s2)-c2ccccc2CC3)o1 | inactive |
| CC(C)(C)c1csc(NC(=O)c2ccncc2)n1 | inconclusive: 12.6 µM [inhibitor, single point] |
| N#Cc1cc2sc3nc4ccccc4n3c2cc1C#N | inactive |
| Cc1ccc(-n2nc3cc(C)c(NC(=S)NC(=O)/C=C/c4ccco4)cc3n2)cc1 | inconclusive: 7.08 µM [inhibitor, full curve, poor fit] |
| COc1cccc(/C=C/C(=O)NCCc2ccc3c(c2)OCCO3)c1 | inactive |
| O=C(/C=C/c1ccc(F)cc1)Nc1cccc(S(=O)(=O)N2CCOCC2)c1 | inconclusive: 1.58 µM [inhibitor, single point] |
| COc1ccc(/C(N)=N/OC(=O)CCCN2C(=O)c3ccccc3C2=O)cc1OC | inactive |
| CCOC(=O)C/C(N)=N/NC(=O)c1ccc(Cl)cc1Cl | inactive |
| CCOC(=O)c1c(-c2ccccc2)csc1NC(=O)c1cc(-c2ccc(F)cc2)on1 | inactive |
| CC(C)c1ccc(OCC(=O)NCc2ccccc2)cc1 | inconclusive: 3.55 µM [inhibitor, single point] |
| O=C(COC(=O)c1ccccn1)Nc1nc(-c2cccc([N+](=O)[O-])c2)cs1 | inactive |
| Cc1ccc(NC(=O)COc2ccc(-n3ccnc3)cc2)cc1Cl | inconclusive: 4.47 µM [inhibitor, full curve] |
| CCOC(=O)c1nnn2c1N(C)C(=O)C1CCCCC12 (stereo not drawn) | inconclusive: 1.26 µM [inhibitor, single point] |
| C=CCSc1nc2c(c(-c3ccsc3)c1C#N)CN(C)CC2 | inactive |

Two entries picked at random from the list so far:

| SMILES | Potency |
| --- | --- |
| O=C(/C=C/c1ccc(F)cc1)Nc1cccc(S(=O)(=O)N2CCOCC2)c1 | inconclusive: 1.58 µM [inhibitor, single point] |
| Cc1ccc(NC(=O)COc2ccc(-n3ccnc3)cc2)cc1Cl | inconclusive: 4.47 µM [inhibitor, full curve] |

(further entries)

| SMILES | Potency |
| --- | --- |
| COc1ccc(C(=O)NC(NC(=O)c2ccc(OC)cc2)c2ccccc2F)cc1 | inactive |
| COc1ccc(OC(=O)c2c(C)nn(-c3ccccc3)c2C)cc1 | inconclusive: 5.01 µM [activator, single point] |
| COc1cccc(N2CC(C(=O)Nc3nnc(SCC(=O)N4CCCC4)s3)CC2=O)c1 (stereo not drawn) | inconclusive: 3.98 µM [inhibitor, full curve, poor fit] |
| CN(C)S(=O)(=O)c1cc(NC(=O)COC(=O)CC2Sc3ccccc3NC2=O)ccc1Cl (stereo not drawn) | inconclusive: 3.16 µM [activator, single point] |
| CCCOc1c(Cl)cc(C(=O)N(Cc2cccc(OC)c2)C2CCS(=O)(=O)C2)cc1Cl (stereo not drawn) | inconclusive: 15.8 µM [inhibitor, single point] |
| CCCCn1nnc(NC(=O)c2ccco2)n1 | inconclusive: 28.2 µM [activator, single point] |
| CN(CC(=O)Nc1ccccc1Br)C(=O)c1ccc(COc2ccccc2)cc1 | inactive |
| N#C/C(=C\c1ccc[nH]1)Sc1nc2ccccc2s1 | inactive |
| Cc1ccc(S(=O)(=O)N(CC(=O)Nc2ccc(C(N)=O)cc2)C(=O)N2CCN(C)CC2)cc1 | inconclusive: 0.398 µM [activator, full curve, poor fit] |
| Oc1ccc(C=Nc2cccc3ccccc23)c(O)c1 | inconclusive: 10 µM [inhibitor, partial curve, poor fit] |
| COc1ccc2nc(Nc3ccccc3OC)sc2c1 | inconclusive: 5.62 µM [inhibitor, full curve, poor fit] |
| COc1cc(/C=C/c2nc3ccccc3c(=O)n2-c2ccc(O)cc2)ccc1O | inconclusive: 35.5 µM [inhibitor, single point] |
| O=C(CCCCCn1c(=S)[nH]c2ccc(N3CCOCC3)cc2c1=O)NCc1cccc(Cl)c1 | inconclusive: 35.5 µM [inhibitor, single point] |
| COc1ccc(N2CCN(C(=O)COC(=O)COc3cc(C)cc(C)c3)CC2)cc1 | inconclusive: 6.31 µM [inhibitor, single point] |
| COc1ccc(S(=O)(=O)N(C)CC(=O)Nc2ccccc2C(F)(F)F)cc1OC | inconclusive: 1.58 µM [inhibitor, partial curve, poor fit] |
| O=c1c(F)cn(C2CCCO2)c(=O)n1Cc1ccccc1F (stereo not drawn) | inconclusive: 29.1 µM [activator, single point] |
| O=C(Nc1ccc(Br)cn1)c1cccc2ccccc12 | inactive |
| CCC(=O)c1ccc(N2CCCCCC2)c(F)c1 | inactive |
| O=C(CN1CCN(Cc2ccccc2Cl)C1=O)N1CCCCCC1 | inconclusive: 6.31 µM [activator, single point] |
| COc1ccc(NC(=S)N2CCN(S(=O)(=O)c3ccc(OC)cc3)CC2)cc1 | inactive |
| CCCC(=O)N1CCN(c2ccc(NC(=O)c3ccco3)cc2)CC1 | inactive |
| Cc1cccc(NC(=O)COC(=O)c2ccccc2SCC(=O)N2CCCC2)c1 | inconclusive: 4.47 µM [activator, full curve, poor fit] |
